Here are results for 38 compounds from the supplement of paper PMC9135407.

Several values for one entry are separate records, joined by “and”; a condition that tells them apart may be missing. Equal entries are not always repeated. Structures can show the parent of a compound that is named as a salt. ± gives the standard deviation of the averaged measurements. The list shows a part of the results. Plates or batches differ in their baseline, so values are only roughly comparable.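 Assay uses culture-activated primary human stellate myofibroblasts; lipid droplet recovery indicates inactivation. Measured: proportion of Hoechst-counted cells over a plate-specific Bodipy cutoff, duplicate wells, DMSO and nortriptyline as per-plate negative and positive controls. A hit scores, control-normalized, above the plate's top-tenth-percentile nortriptyline wells or ranks among its three best wells. Final well concentrations not reported.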

The experiment relates to primary human hepatic stellate cells (donor 1). Description: percent Bodipy-positive cells; higher = more lipid droplet accumulation. To be noted: 48 h.
[1] abbreviates: library stock concentration: 10 mM.
[2] abbreviates: library stock concentration: 1 mM.
[3] abbreviates: library stock concentration: 3.33 mM.
Where [4] appears, read: library stock concentration: 80 uM.
The mark [5] stands for this setting: library stock concentration: 400 uM.
Setting [6] is: library stock concentration: 5.3 mM.

Regarding `CSC(=N)N` [S-Methylisothiourea hemisulfate], under setting [1], the “percent Bodipy-positive cells” value turned out to be 26 ± 11%. As to `CSC(=N)N` [S-methyl Isothiourea (hemisulfate)], under setting [2], the “percent Bodipy-positive cells” value turned out to be 7.55 ± 2.2%. As to `CN(C)CCOC(c1ccccc1)c1ccccc1.Cn1c(=O)c2[nH]c(Cl)nc2n(C)c1=O` [Dimenhydrinate], the “percent Bodipy-positive cells” value was determined as 45 ± 8.6%. In addition, under setting [1], the “percent Bodipy-positive cells” value stood at 15.8 ± 4.3%. For `CN(CCCN1c2ccccc2CCc2ccccc21)CC(=O)c1ccc(Cl)cc1` [Lofepramine], under setting [1], the “percent Bodipy-positive cells” value came to 30.8 ± 5.1%. For the compound `CN(CCCN1c2ccccc2CCc2ccccc21)CC(=O)c1ccc(Cl)cc1`, the “percent Bodipy-positive cells” value under setting [1] is 37.5 ± 1.2%.

Consider `CCS(=O)(=O)N1CC(CC#N)(n2cc(-c3ncnc4[nH]ccc34)cn2)C1`, for which the “percent Bodipy-positive cells” value reads like this: under setting [3], 6.19 ± 0.8%; under setting [1], 12.7 ± 4.2%. Regarding `CCS(=O)(=O)N1CC(CC#N)(n2cc(-c3ncnc4[nH]ccc34)cn2)C1` [Baricitinib], the “percent Bodipy-positive cells” value reads like this: under setting [4], 13 ± 0.94%; under setting [5], 11.5 ± 0.55%; (library stock concentration: 2 mM) 7.3 ± 4.3%; under setting [1], 25.7 ± 9.2%. Take `CS(=O)(=O)O.Cc1ccc(NC(=O)c2ccc(CN3CCN(C)CC3)cc2)cc1Nc1nccc(-c2cccnc2)n1` [Imatinib]: the “percent Bodipy-positive cells” value under setting [1] worked out at 98.067 ± 0.013%.

On to `CCCCCC=CCC=CC=CC=CC(SCC(NC(C)=O)C(=O)O)C(O)CCCC(=O)O` (centres undefined) [N-Acetyl-leukotriene E4], for which the “percent Bodipy-positive cells” value (library stock concentration: 100 uM) is 18.1 ± 3.6%.

`O=C(O)CCC/C=C\C[C@@H]1[C@@H](CC[C@@H](O)CCc2cccc(C(F)(F)F)c2)[C@H](O)C[C@@H]1O`: under setting [2], the “percent Bodipy-positive cells” value was 14.5 ± 0.8%.

With `CCCOc1ccc2[nH]c(NC(=O)OC)nc2c1` [Oxibendazole], the “percent Bodipy-positive cells” value is, setting by setting: (library stock concentration: 8 mM) 17.7% and 5.52%; under setting [1], 45.9 ± 6.3%. For the compound `Cc1cc2nc3c(=O)[nH]c(=O)nc-3n(C[C@H](O)[C@H](O)[C@H](O)CO)c2cc1C` [Riboflavin], the “percent Bodipy-positive cells” value turned out to be 18.1 ± 5.2% under setting [6] and 35.59 ± 0.12% under setting [1]. On to `Cc1cc2nc3c(=O)[nH]c(=O)nc-3n(C[C@H](O)[C@H](O)[C@H](O)CO)c2cc1C` [Riboflavine], for which the “percent Bodipy-positive cells” value was 19.7 ± 0.51%.

Turning to `CC(C)(CO)Cc1cc(C(C)(C)C)c(O)c(C(C)(C)C)c1`, the “percent Bodipy-positive cells” value under setting [1] was determined as 86.6 ± 2.9%. Regarding `Cc1[nH]cnc1CN1CCc2c(c3ccccc3n2C)C1=O`, the “percent Bodipy-positive cells” value under setting [1] is 13.6 ± 7.8%. Turning to `O=C(Nc1ccc2[nH]nc(-c3ccncc3)c2c1)[C@@H]1CCN(CC(=O)N2CCN(c3ccc(-c4ncccn4)cc3)CC2)C1`, the “percent Bodipy-positive cells” value under setting [1] worked out at 77.9 ± 5.2%. As to `O=C(O)CCc1ccc(NCc2cccc(Oc3ccccc3)c2)cc1`, the “percent Bodipy-positive cells” value under setting [2] amounted to 15.7 ± 11% and the “percent Bodipy-positive cells” value under setting [3] was found to be 28.7 ± 1.4%. On to `CC(C)c1ccccc1Cc1cc(C(=O)Nc2ccc(S(=O)(=O)c3ccccc3C(C)(C)C)cc2)c(O)c(O)c1O`, for which the “percent Bodipy-positive cells” value turned out to be 8.23 ± 0.34% under setting [3] and 16.7 ± 8.7% under setting [1].

Turning to `N=C(N)SCCc1ccc(CCSC(=N)N)cc1` [1,4-PBIT (dihydrobromide)], the “percent Bodipy-positive cells” value under setting [2] worked out at 15.2 ± 3.3%. Regarding `COc1ccc(CN(CCN(C)C)c2ncccn2)cc1` [Thonzylamine hydrochloride], the “percent Bodipy-positive cells” value by setting is: (library stock concentration: 6.2 mM) 35.4 ± 13%; under setting [1], 41.04 ± 0.079%. Consider `O=C(Nc1ccccc1)N[C@@H]1C[C@@H](C(=O)O)Nc2cc(Cl)cc(Cl)c21`, for which the “percent Bodipy-positive cells” value under setting [1] turned out to be 8.34 ± 1.6%. For the compound `Cc1cc2c(OCC(CNC(C)(C)C)OC(=O)c3ccccc3)cccc2[nH]1` (centres undefined) [Bopindolol malonate], under setting [6], the “percent Bodipy-positive cells” value amounted to 9.63 ± 0.77%. `Cc1ccc(Sc2ccccc2N2CCNCC2)c(C)c1`: the “percent Bodipy-positive cells” value is, setting by setting: under setting [3], 99.28 ± 0.38%; under setting [1], 99.35 ± 0.92%.

For the compound `CC[C@@H](C)Nc1cc(C(=O)NC2CC3CCC(C2)N3c2ccc(C(=O)C3CC3)cn2)c(C)cc1C(N)=O` (some centres undefined), the “percent Bodipy-positive cells” value under setting [1] came out at 88 ± 3.9%.

`CN1CCC(CNc2ccc3ncc(-c4cccc(OC(F)(F)F)c4)n3n2)CC1`: the “percent Bodipy-positive cells” value came out at 25.7 ± 0.88% under setting [4], 48.7 ± 23% under setting [5] and 90.7 ± 2% under setting [1]. As to `CN1CCC(CNc2ccc3ncc(-c4cccc(OC(F)(F)F)c4)n3n2)CC1` [SGI-1776 free base], the “percent Bodipy-positive cells” value is, setting by setting: under setting [3], 86.3 ± 2.3%; under setting [1], 92.2 ± 8.3%. Regarding `COc1ccc(CNc2nc(N(CCO)CCO)nc3c2ncn3C(C)C)cc1` [Cdk2 Inhibitor III], the “percent Bodipy-positive cells” value under setting [3] was found to be 46.4 ± 7.6%.

Regarding `NC(=O)c1ccc[n+]([C@@H]2O[C@H](COP(=O)([O-])OP(=O)(O)OC[C@H]3O[C@@H](n4cnc5c(N)ncnc54)[C@H](O)[C@@H]3O)[C@@H](O)[C@H]2O)c1` [Nadide], the “percent Bodipy-positive cells” value worked out at 9.5 ± 2.2%. The “percent Bodipy-positive cells” value (library stock concentration: 3 mM) was 5.22 ± 0.28%.

For `C[C@H](NC(=O)CCc1nc2ccccc2c(=O)[nH]1)c1ccccc1`, the “percent Bodipy-positive cells” value under setting [3] was 32.7 ± 1.2% and the “percent Bodipy-positive cells” value under setting [1] was found to be 46.2 ± 18%. `CC(C)[C@H](NS(=O)(=O)c1ccc(-c2ccc(Br)cc2)cc1)C(=O)O`: the “percent Bodipy-positive cells” value under setting [1] was determined as 7.15 ± 4.3%. Still for that read-out and setting: next, `NCC(=O)CCC(=O)O` [Aminolevulinic Acid]: 25.7 ± 4.6%. On to `NCC(=O)CCC(=O)O` [5-Aminolevulinic acid HCl], for which the “percent Bodipy-positive cells” value is, setting by setting: under setting [3], 9.64 ± 1.8%; under setting [1], 18.9 ± 2.6%. `NCC(=O)CCC(=O)O` [Aminolevulinic acid hydrochloride]: the “percent Bodipy-positive cells” value under setting [1] came to 41.3 ± 19%.

For `COc1cc2c(cc1OC)[C@@H]1Cc3ccc(OC)c(OC)c3CN1CC2` [Rotundine], the “percent Bodipy-positive cells” value under setting [3] came to 6.99 ± 3.3% and the “percent Bodipy-positive cells” value under setting [1] was found to be 11.2 ± 2.2%. In the case of `O=C(CCCN1CCC(O)(c2ccc(Cl)cc2)CC1)c1ccc(F)cc1` [Haloperidol], the “percent Bodipy-positive cells” value was found to be 68.5 ± 11%. Also, under setting [3], the “percent Bodipy-positive cells” value was found to be 60.7 ± 9.6%. Under setting [6], the “percent Bodipy-positive cells” value was determined as 30.39 ± 0.15%.

`O=C(CCCN1CCC(O)(c2ccc(Cl)cc2)CC1)c1ccc(F)cc1` [Haloperidol HCl]: the “percent Bodipy-positive cells” value under setting [6] came to 40.4 ± 6.9%. Regarding `O=C(CCCN1CCC(O)(c2ccc(Cl)cc2)CC1)c1ccc(F)cc1` [Haloperidol hydrochloride], the “percent Bodipy-positive cells” value under setting [1] stood at 53.7 ± 5.8%. With `O=C(O)C[C@H](O)C[C@H](O)/C=C/c1c(C2CC2)nc2ccccc2c1-c1ccc(F)cc1` [Pitavastatin Calcium], the “percent Bodipy-positive cells” value runs as follows: under setting [3], 37.7 ± 3.1%; under setting [1], 39.5 ± 5.8%.
